From US20240309015A1, “Methods for the Treatment of Fibrotic Disease” (SHY Therapeutics, LLC, priority 2021, published 2024)
For at least one compound, name, drawing or mass did not settle the structure.

What was measured:
KRas G12C mutant = test: Ras GTP Binding Domain Inhibition Assay, KRas G12C mutant; settings: at 20 μM
Experimental: (§1) A Ras Superfamily Activity Assay (as disclosed in International Application No. PCT/US2018/038613, filed Jun. 20, 2018, which is incorporated by reference in its entirety) was used as a specific assay to evaluate compounds against the following for the following Ras Superfamily proteins: KRas wild type, KRas Q61H mutant, KRas G12C mutant, KRas G12D mutant, Rac-1, and Rho-A.
(§2) Buffer-I: • 25 mM Tris-HCl, pH 7.4 • 27 mM KCl • 137 mM NaCl • 1 mM MgCl2 • 1 mM DTT
(§3) Buffer-IL: • 50 mM Tris-HCl, pH 7.0 • 1 mM MgCl2 • 1 mM DTT
(§4) The small GTPases proteins: KRas wild type. KRas Q61H mutant, KRas G12C mutant, KRas G12D mutants, Rac-1, and Rho-A were expressed as His-tagged proteins. In addition, the Guanosine nucleotide Exchange Factor (GEF) Sos protein (residues 556-1049) was expressed as a His-tagged protein. In cells, the guanine nucleotide exchange factor Sos protein promotes activation of Ras proteins by stimulating an exchange of GDP for GTP. […]
(§5) For the assay, all purified small GTPases proteins were diluted in Buffer-I or Buffer-II to a final concentration of 10-30 μg/mL. […] Following washes, the amount of bound labeled-GTP was measured using a SpectraMax M3 (Molecular Devices).

KRas wild type = test: Ras GTP Binding Domain Inhibition Assay, KRas wild type; settings: at 20 μM
Experimental: as §1, §2, §3, §4, §5

Rho-A = test: Ras GTP Binding Domain Inhibition Assay, Rho-A; settings: at 20 μM; without SOS
Experimental: as §1, §2, §3, §4, §5

KRas G12D mutant = test: Ras GTP Binding Domain Inhibition Assay, KRas G12D mutant; settings: at 20 μM; for KRas G12D mutant + SOS: % inh.: with SOS; for KRas G12D mutant: % inh.: without SOS
Experimental: as §1, §2, §3
The small GTPases proteins: KRas wild type. KRas Q61H mutant, KRas G12C mutant, KRas G12D mutants, Rac-1, and Rho-A were expressed as His-tagged proteins. In addition, the Guanosine nucleotide Exchange Factor (GEF) Sos protein (residues 556-1049) was expressed as a His-tagged protein. In cells, the guanine nucleotide exchange factor Sos protein promotes activation of Ras proteins by stimulating an exchange of GDP for GTP. The inclusion of Sos to the Ras GTP binding domain inhibition assay may be considered as an alternative representation of physiological cellular conditions for evaluating the inhibitory activity of some of the tested small molecules.
For the assay, all purified small GTPases proteins were diluted in Buffer-I or Buffer-II to a final concentration of 10-30 μg/mL. 200 μL of each diluted protein was added to a nickel-coated 96-well plate and incubated overnight at 4° C. Then the protein solution was discarded and 200 μL of Buffer-I or Buffer-II was added to each well in the presence of 1% DMSO. Compounds to be tested were added to the protein-coated wells at final concentration of 20 μM, and incubated for 3 hours at room temperature with and without 10-30 μg/mL of Sos added to the final hour of the incubation. When performing IC50 measurements a serial dilution of all tested concentrations was added. Then Cy3-GTP or Cy5-GTP was added to each well to a final concentration of 100 nM. The labeled GTP was incubated for 45 minutes at room temperature. Following GTP incubation, wells were washed 3× in Buffer-I or Buffer-II and 200 μL of Buffer-I or Buffer-II was added to each well. Following washes, the amount of bound labeled-GTP was measured using a SpectraMax M3 (Molecular Devices).

CO[C@H]1CNC[C@@H](Nc2nc(-c3nccn3C)nc3sc(-c4ccn(C(C)C)n4)cc23)C1 [Compound 28, 6-(1-Isopropyl-1H-pyrazol-3-yl)-N-((3S,5R)-5-methoxypiperidin-3-yl)-2-(1-methyl-1H-imidazol-2-yl)thieno[2,3-d]pyrimidin-4-amine]
KRas G12C mutant + SOS: % inh. (KRas G12C mutant; with SOS): D (D = 76-100% inhibition)
KRas G12C mutant: % inh. (KRas G12C mutant; without SOS): D (D = 76-100% inhibition)
KRas wild type + SOS: % inh. (KRas wild type; with SOS): D (D = 76-100% inhibition)
KRas wild type: % inh. (KRas wild type; without SOS): D (D = 76-100% inhibition)
Rho-A: % inh. (Rho-A): C (C = 46-75% inhibition)
KRas G12D mutant + SOS: % inh. (KRas G12D mutant; Table 7): D (D = 76-100% inhibition)
KRas G12D mutant + SOS: % inh. (KRas G12D mutant; Table 8): D (D = 76-100% inhibition)
KRas G12D mutant: % inh. (KRas G12D mutant; Table 7): C (C = 46-75% inhibition)
KRas G12D mutant: % inh. (KRas G12D mutant; Table 8): C (C = 46-75% inhibition)
